# Source: PubChem BioAssay AID2676 (National Center for Advancing Translational Sciences (NCATS), 2010)
# Sequences of proteins named here, by UniProt entry; tags and fusion partners are left off.
# UniProt Q9HBX9, whole entry, looked up: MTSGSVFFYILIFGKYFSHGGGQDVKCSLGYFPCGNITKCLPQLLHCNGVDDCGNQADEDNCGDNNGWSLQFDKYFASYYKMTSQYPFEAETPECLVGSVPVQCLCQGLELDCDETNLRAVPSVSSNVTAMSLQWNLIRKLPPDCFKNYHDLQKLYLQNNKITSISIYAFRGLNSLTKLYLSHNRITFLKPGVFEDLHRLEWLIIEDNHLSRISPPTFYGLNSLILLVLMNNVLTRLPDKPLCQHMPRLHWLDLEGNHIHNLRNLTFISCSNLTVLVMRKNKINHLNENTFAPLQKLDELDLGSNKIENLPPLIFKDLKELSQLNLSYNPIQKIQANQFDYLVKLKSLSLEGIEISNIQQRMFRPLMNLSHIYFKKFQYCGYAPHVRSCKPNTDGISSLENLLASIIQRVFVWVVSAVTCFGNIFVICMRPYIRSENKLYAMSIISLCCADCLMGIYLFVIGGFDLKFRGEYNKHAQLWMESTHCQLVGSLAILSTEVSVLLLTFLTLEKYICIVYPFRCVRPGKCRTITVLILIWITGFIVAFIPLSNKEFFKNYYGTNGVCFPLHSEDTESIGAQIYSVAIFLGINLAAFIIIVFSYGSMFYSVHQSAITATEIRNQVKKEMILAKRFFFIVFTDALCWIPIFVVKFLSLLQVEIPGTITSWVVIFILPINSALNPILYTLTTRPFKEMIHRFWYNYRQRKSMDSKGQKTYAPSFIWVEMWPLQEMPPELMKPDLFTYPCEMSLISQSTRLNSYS
# In all, about 370,000 compounds went through this assay and about 1,100 (0.3%) were called active. Inconclusive results (about 1%) are left out. Calls come from the whole dose curve; as a rule, active = well fitted activation curve with a large enough effect; inconclusive = small, poorly fitted or top-dose-only effect; inactive = flat fitted curve, though single readings scatter. The list shows a part of the results, in another mix than the full data. Where no call is shown, the source filed none. Some compounds were tested as several samples or in several runs, with calls that do not always agree.
# Target: Relaxin receptor 1 (Homo sapiens) (UniProt Q9HBX9)
# Assay: qHTS Assay for Agonists of the Relaxin Receptor RXFP1; note: nearly all actives have a fitted effect of over 60% in size
# Details: HEK293T-RXFP1 cAMP TR-FRET, 30 min; activation: at 57.5 µM (top of the series), percent of porcine relaxin response, buffer zero
# Excerpt: NIH Chemical Genomics Center [NCGC] NIH Molecular Libraries Probe Production Centers Network [MLPCN] MLPCN Grant: R03 MH085705-01A1 Assay Submitter (PI): Alexander Agoulnik NCGC Assay Overview: The relaxin hormone is involved in the variety of biological functions in normal tissues and diseases. The role of relaxin is well-established in female reproduction and parturition, mammary gland and endometrial development, maintenance of myometrial quiescence during pregnancy. Relaxin signaling through its G protein-coupled receptor (GPCR) RXFP1 results in ECM remodeling through regulation of collagen deposition, cell invasiveness, proliferation and overall tissue homeostasis. […] Recombinant human relaxin (rhRlx) is currently being tested in clinical trials as a protective agent in congestive heart failure, in treating severe preeclampsia, and as an anti-fibrotic agent in systemic sclerosis. Upon relaxin binding RXFP1 activation leads to the activation of adenylate cyclase (AC) via Gs. cAMP will activate PKA, which phosphorylates many signaling proteins. Thus, detection of cAMP increase is an easy and reliable indication of relaxin receptor activation. To screen for agonists of the relaxin receptor, a HEK293T cell line stably transfected with RXFP1 was used. RXFP1 activation was assayed by changes in cAMP levels as detected with a time-resolved fluorescence energy transfer (TR-FRET) cAMP detection kit.
# NCGC Assay Protocol Summary: This is a cell-based assay for cAMP second messenger response to screen for agonists of the RXFP1 receptor. The assay was conducted in the presence of a PDE4 inhibitor (Ro 20174). The cells were lysed and the cAMP levels were measured with a TR-FRET cAMP kit. Presence of cAMP in the cell lysate disrupts binding between the cryptate-labeled anti-cAMP and d2-labeled cAMP pair, leading to a decrease in the TR-FRET signal. Data were normalized to the controls for basal activity (buffer only) and 100% activity (29 nM porcine relaxin). The EC50 values were determined from concentration-response data modeled with the standard Hill equation 1536-well assay protocol for the HEK293 RXFP1 cAMP assay: (1) Add 3 ul HEK293 RXFP1 cell culture. 2000 cells/well in DMEM/F12, 10% FBS, 1x Pen/Strep (dispensed offline with MultiDrop Combi). (2) Incubate 16-24 hr at 37C, 5% CO2. (3) Add 1 ul 400uM Ro20174 in DPBS, 0.05% BSA, 0.005% Tween 20. (3) Add 23 nl compounds in DMSO solution. Final concentration was 0.5 - 58 uM. (4) Incubate 30 min at 37C, 5% CO2. (5) Add 1 ul cAMP-d2 in lysis buffer (HTRF cAMP HiRange kit, CisBio). (6) Add 1 ul anti-cAMP antibody-cryptate in lysis buffer (HTRF cAMP HiRange kit, CisBio). (7) Incubate 30 min at room temperature. (6) Detect the assay plate in a ViewLux plate reader (PerkinElmer) with Ex=320 nm, Em1=615 nm and Em2=665 nm. Keywords: relaxin, RXFP1, RXFP2, G-protein coupled receptor, cAMP, agonist, high throughput screening, MLSMR, MLSCN, NIH Roadmap, qHTS and NCGC
# % is set by controls: 0 for no effect and ±100 for the full control effect; potency is the fitted concentration of half-maximal effect.
SMILES,Potency,activation
CC(=O)c1cccc(NC(=O)c2nc3ccccc3n(C)c2=O)c1,active: 15.8 µM,–
COC(=O)c1ccc(NC(=O)CC2Nc3cc(C)c(C)cc3NC2=O)cc1 (stereo not given),–,-0.514%
CCOC(=O)c1sc(=NC(=O)c2cccs2)n(C)c1C,active: 28.2 µM,–
CN(Cc1ccco1)S(=O)(=O)c1nnc(NC(=O)c2ccccc2Cl)s1,–,inactive: 6.44%
O=C1CN(c2nc3ccccc3n3cnnc23)CC(=O)N1CCc1ccccc1,–,5.82%
Cc1sc2ncn(CC(=O)Nc3ccc(C(C)C)cc3)c(=O)c2c1S(=O)(=O)N1CCN(c2ncccn2)CC1,active: 25.1 µM,–
CC1CCCN(S(=O)(=O)c2ccc3c(c2)CCN3C(=O)CCC(=O)O)C1 (stereo not given),–,2.11%
O=[N+]([O-])c1cccc(COc2ncnc3cc([N+](=O)[O-])ccc23)c1,active: 28.2 µM,–
COc1cc(-c2nnc(SCC(=O)N(C)C3CCS(=O)(=O)C3)o2)cc(OC)c1OC (stereo not given),–,7.51%
Cc1nn(CCC(=O)NC(C)C)c(=O)c2nn(-c3ccccc3)c(C)c12,–,-4.5%
O=C(Cn1c(=O)n(CCCS(=O)(=O)C2CCCCC2)c(=O)c2ccccc21)Nc1ccccc1F,–,91.8%
COc1ccccc1-c1cc2nc(C)c(CCC(=O)NCCc3ccc(SC)cc3)c(C)n2n1,–,46.6%
Cc1cccc(-n2ncc(C(=O)NCc3ccccn3)c2C2CCN(C(=O)OC(C)(C)C)CC2)c1,–,1.47%
CCn1c2ccccc2c2cc(NC(=O)COc3cccc(C)c3)ccc21,–,38.2%
Cc1ccc(Cl)cc1N1CCN(C(=O)C(C)n2ncn3cccc3c2=O)CC1 (stereo not given),–,inactive: 4.61%
O=C(Nc1c(C(=O)N2CCN(c3ccc(F)cc3)CC2)oc2ccccc12)c1ccco1,–,183%
COc1cc(C2C(C(=O)c3cc4ccccc4o3)=C(O)C(=O)N2CCN2CCOCC2)ccc1OCCC(C)C (stereo not given),active: 28.2 µM,–
Cc1cn(S(=O)(=O)c2ccc(Br)c3ccccc23)cn1,active: 22.4 µM,–
COc1cccc(CNC(=O)c2ccc(CS(=O)Cc3ccc(C)cc3)o2)c1 (stereo not given),–,5.47%
O=C(CN1C(=O)c2cccc3cccc(c23)C1=O)NCCN1CCOCC1,active: 14.1 µM,–

SMILES,Potency,activation
Cc1ccc(NC(=O)c2sc3nc(-c4cccs4)ccc3c2N)cc1F,–,54.4%
Fc1ccc(-c2cn3cc(Cc4ccccc4)sc3n2)cc1,–,32.4%
Cc1nn(CC(=O)N2CCN(c3cccc(C(F)(F)F)c3)CC2)c(=O)c2cccn12,–,inactive: 0.921%
Cc1cccc(N2CCN(C(=O)c3cc(S(=O)(=O)N4CCC(C)CC4)cn3C)CC2)c1C,–,31.3%
CC1=C/C(=C(/c2cc(C)c(O)c(Br)c2)c2ccccc2S(=O)(=O)O)C=C(Br)C1=O,–,inactive: -37.2%
CCN(CCCNC(=O)c1cc2c(=O)n(C)c3ccccc3c2s1)Cc1ccccc1,–,70%
CCC(=O)N1CCc2cc(S(=O)(=O)NCCC(=O)Nc3ccc(OC)c(Cl)c3)ccc21,–,10.5%
CCN(CCCNC(=O)c1cc2c(=O)[nH]c3ccc(C)cc3c2s1)c1ccc(C)cc1,–,16.1%
CCOc1ccccc1NC(=O)Nc1ccc2nc(N3CCN(C)CC3)cc(C)c2c1,–,22.6%
COc1cc2c(cc1NC(=O)COc1ccc(Br)c(C)c1)oc1ccccc12,–,59.9%
CC(=O)Nc1c2c3c(cccc3n(C)c1=O)C(=O)c1ccccc1-2,–,94.1%
NC(=O)CC(NC(=O)Cc1ccc(Br)cc1)c1ccc(NCCc2ccccc2F)c([N+](=O)[O-])c1 (stereo not given),–,inactive: -30%
Cn1c(=S)[nH]c2c(c1=O)C(C)(C)Cc1ccccc1-2,active: 15.8 µM,–
CCCC(=O)Nc1ncnc2c1ncn2[C@@H]1O[C@@H]2COP(=O)(O)O[C@H]2[C@H]1OC(=O)CCC,active: 0.158 µM,–
CCCOc1cccc(C(=O)Nc2cc(-c3nc4ccccc4[nH]3)ccc2C)c1,–,69.8%
CCOC(=O)c1cc(S(=O)(=O)N2CCN(c3ccc(F)cc3)CC2)[nH]n1,–,4.86%
O=C(O)c1ccc(N=C2NC(=O)C(CO)(CO)S2)cc1,–,4.08%
Cn1cc(/C=C/c2cc[n+](C)cc2)c2cc(Cl)ccc21,–,inactive: -45.3%
Cc1cc(O)c(CN2CCN(c3ccc(F)cc3)CC2)c2oc(=O)cc(C)c12,active: 25.1 µM,–
CCCOc1ccc(C(=O)Nc2ccc3oc(-c4ccc(N(C)C)cc4)nc3c2)cc1,active: 3.16 µM,–

# Among those listed so far, two contain a nitro group on carbon:
SMILES,Potency,activation
O=[N+]([O-])c1cccc(COc2ncnc3cc([N+](=O)[O-])ccc23)c1,active: 28.2 µM,–
NC(=O)CC(NC(=O)Cc1ccc(Br)cc1)c1ccc(NCCc2ccccc2F)c([N+](=O)[O-])c1 (stereo not given),–,inactive: -30%
